Reference: publication PMC6838312
Results are given in words; binding and its absence hold for the method and conditions named. In cells and extracts the contact can be indirect. Some results given as binding are weak or reduced against the parent protein; the word gives no strength.

By UniProt entry, the sequences of proteins in these tests, tags left out.
UniProt P58462: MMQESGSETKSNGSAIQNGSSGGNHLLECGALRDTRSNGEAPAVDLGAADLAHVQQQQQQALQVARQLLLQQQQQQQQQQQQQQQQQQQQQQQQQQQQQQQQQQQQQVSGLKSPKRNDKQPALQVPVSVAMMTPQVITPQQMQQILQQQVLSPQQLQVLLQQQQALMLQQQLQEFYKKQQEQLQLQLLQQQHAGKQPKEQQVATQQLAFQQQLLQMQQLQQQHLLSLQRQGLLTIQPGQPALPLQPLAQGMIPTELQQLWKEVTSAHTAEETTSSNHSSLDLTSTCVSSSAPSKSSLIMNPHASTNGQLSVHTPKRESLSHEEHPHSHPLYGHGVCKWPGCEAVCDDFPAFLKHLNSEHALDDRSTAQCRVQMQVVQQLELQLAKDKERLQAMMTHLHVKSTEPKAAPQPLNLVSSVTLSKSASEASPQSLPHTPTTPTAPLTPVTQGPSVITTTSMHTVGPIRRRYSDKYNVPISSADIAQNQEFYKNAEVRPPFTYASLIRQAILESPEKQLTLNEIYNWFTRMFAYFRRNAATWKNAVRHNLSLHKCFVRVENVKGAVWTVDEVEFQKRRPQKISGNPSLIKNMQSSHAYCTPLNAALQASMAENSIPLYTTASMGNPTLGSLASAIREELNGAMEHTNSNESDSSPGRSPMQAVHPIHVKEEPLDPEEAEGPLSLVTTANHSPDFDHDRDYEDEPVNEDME
UniProt P28033: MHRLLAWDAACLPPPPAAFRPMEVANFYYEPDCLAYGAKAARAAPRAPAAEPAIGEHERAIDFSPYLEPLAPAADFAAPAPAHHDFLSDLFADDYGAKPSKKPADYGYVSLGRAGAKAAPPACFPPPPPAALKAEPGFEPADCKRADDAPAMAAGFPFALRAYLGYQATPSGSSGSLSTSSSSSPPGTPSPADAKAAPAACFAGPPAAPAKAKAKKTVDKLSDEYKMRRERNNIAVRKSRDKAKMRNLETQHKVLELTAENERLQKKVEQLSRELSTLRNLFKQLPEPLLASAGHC
UniProt A2A935: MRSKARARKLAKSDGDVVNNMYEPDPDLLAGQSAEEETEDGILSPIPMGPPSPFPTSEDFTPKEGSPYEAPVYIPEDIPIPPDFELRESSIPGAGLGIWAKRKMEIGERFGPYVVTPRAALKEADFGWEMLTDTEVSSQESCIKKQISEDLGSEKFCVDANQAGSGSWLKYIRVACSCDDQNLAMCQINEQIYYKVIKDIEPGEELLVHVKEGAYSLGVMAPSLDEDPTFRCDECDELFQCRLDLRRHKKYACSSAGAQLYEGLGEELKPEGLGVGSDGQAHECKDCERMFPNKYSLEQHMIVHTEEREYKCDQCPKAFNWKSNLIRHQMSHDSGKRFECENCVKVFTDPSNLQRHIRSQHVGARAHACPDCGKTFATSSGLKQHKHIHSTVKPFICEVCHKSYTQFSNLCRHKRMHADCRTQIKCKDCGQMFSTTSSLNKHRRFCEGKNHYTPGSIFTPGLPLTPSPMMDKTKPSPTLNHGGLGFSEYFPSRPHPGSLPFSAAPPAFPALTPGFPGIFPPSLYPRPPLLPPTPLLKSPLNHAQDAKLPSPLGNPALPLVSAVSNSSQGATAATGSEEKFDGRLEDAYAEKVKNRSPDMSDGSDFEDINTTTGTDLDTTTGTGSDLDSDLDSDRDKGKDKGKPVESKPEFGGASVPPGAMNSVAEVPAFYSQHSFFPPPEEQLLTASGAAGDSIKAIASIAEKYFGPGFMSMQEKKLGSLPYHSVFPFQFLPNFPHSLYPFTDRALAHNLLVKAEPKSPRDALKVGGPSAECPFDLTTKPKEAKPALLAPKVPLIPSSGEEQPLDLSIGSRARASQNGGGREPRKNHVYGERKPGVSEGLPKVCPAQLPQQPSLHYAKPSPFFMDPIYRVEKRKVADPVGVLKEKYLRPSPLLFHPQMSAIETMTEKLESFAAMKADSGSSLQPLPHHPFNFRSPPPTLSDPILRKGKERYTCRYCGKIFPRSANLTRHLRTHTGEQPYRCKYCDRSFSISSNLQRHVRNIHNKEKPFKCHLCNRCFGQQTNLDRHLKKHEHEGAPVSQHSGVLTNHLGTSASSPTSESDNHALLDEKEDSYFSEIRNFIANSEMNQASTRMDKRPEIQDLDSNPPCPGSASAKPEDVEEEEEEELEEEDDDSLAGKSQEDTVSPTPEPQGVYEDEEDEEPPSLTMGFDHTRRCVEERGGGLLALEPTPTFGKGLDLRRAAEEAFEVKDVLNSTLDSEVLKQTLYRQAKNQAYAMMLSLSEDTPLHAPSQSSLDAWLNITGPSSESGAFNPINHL

What was measured:
[1] = molecular target: Foxp1 (mouse (endogenous in SVF cells from BAT)) (UniProt P58462); assay: co-IP; in vivo Co-IP: total lysates of SVF cells cultured from wild-type mice, incubated overnight at 4 °C with antibodies or normal IgG as control, Protein A/G PLUS-Agarose, western blotting; endogenous proteins
Foxp1-His = Foxp1-His (UniProt P58462); assay: co-IP; in vitro Co-IP: total lysates of HEK293T cells co-transfected with Foxp1-His, Prdm16-Flag and C/ebpβ-Myc plasmids, incubated overnight at 4 °C with antibodies or normal IgG as control, Protein A/G PLUS-Agarose, western blotting

binding [1]	binding (Foxp1-His)	Substance
binds		C/ebpβ (from UniProt P28033 1-296)
	binds	C/ebpβ-Myc (from UniProt P28033 1-296)
binds		Prdm16 (from UniProt A2A935 1-1275)
	binds	Prdm16-Flag (from UniProt A2A935 1-1275)
